# Reference: patent US20080114173A1 (priority 2004, published 2008)
# Conditions: clear polyethylene bag, optionally in black polyethylene bag with silica gel, sealed triple laminated bag, HDPE drum; over a period of 60 days
compound,measurement,value
"COc1cc2c(cc1OC)C(=O)C(CC1CCN(Cc3ccccc3)CC1)C2.Cl (racemic) [donepezil hydrochloride form I, (±)-2,3-dihydro-5,6-dimethoxy-2-[[1-(phenylmethyl)-4-piperidinyl]methyl]-1H-inden-1-one hydrochloride]",change to the donepezil hydrochloride on storage,no significant change
